Reference: the supplement of paper PMC12819154, “High-throughput peptide-centric local stability assay extends protein–ligand identification to membrane proteins, tissues and bacteria” (Nature Structural & Molecular Biology, 2025)
The list shows a part of the results. Most entries show no effect beyond the scatter of the controls.

Chains of the proteins cited; added tags and fusions are not shown. Lines headed by an entry give the natural chain unless they say otherwise; changes in a name come on top.
UniProt O14986: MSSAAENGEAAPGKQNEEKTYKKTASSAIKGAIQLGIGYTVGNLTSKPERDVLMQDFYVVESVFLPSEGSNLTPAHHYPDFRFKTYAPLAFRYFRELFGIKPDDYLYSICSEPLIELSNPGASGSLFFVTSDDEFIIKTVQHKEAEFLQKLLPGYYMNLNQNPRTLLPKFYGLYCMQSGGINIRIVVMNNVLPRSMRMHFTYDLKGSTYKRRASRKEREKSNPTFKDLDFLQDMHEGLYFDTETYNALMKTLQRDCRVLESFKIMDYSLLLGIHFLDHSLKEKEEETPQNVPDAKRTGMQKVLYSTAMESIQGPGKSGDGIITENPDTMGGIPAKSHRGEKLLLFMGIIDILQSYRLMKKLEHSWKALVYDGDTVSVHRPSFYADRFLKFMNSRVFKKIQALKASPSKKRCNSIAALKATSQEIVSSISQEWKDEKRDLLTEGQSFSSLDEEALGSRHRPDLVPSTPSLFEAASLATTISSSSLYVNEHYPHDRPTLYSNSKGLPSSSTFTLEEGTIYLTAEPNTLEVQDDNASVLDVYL
UniProt O00764: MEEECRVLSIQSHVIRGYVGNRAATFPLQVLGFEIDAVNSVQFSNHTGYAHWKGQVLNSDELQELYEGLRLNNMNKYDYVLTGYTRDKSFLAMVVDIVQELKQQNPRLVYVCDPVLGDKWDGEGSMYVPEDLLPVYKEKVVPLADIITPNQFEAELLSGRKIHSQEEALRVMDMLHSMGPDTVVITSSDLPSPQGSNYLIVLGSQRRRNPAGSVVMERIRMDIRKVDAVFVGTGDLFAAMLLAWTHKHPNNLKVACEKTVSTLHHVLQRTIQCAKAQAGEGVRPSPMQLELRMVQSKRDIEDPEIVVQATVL
UniProt O14602, whole entry: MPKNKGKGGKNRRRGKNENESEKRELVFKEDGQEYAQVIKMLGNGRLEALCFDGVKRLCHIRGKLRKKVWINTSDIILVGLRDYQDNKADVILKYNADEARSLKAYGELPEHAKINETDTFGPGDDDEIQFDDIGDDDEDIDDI
UniProt O15156: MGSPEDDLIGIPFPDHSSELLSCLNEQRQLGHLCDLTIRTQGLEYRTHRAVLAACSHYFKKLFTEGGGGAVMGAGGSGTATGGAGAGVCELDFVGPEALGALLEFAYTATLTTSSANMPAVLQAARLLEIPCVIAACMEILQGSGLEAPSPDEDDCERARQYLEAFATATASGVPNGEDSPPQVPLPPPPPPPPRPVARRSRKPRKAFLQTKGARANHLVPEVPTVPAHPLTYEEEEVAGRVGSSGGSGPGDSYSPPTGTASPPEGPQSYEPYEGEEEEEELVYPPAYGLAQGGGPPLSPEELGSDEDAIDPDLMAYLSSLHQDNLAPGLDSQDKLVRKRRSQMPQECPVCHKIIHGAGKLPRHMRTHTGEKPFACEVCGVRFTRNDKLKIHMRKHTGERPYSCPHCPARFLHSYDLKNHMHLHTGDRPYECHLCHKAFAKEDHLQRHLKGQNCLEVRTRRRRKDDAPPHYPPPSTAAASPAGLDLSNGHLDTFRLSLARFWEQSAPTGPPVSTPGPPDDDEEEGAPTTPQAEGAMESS
UniProt O15392, whole entry: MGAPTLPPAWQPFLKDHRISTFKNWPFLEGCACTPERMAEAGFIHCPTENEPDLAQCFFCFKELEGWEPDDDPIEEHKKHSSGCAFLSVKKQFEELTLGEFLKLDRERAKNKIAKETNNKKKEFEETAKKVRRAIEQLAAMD
UniProt O00425, whole entry: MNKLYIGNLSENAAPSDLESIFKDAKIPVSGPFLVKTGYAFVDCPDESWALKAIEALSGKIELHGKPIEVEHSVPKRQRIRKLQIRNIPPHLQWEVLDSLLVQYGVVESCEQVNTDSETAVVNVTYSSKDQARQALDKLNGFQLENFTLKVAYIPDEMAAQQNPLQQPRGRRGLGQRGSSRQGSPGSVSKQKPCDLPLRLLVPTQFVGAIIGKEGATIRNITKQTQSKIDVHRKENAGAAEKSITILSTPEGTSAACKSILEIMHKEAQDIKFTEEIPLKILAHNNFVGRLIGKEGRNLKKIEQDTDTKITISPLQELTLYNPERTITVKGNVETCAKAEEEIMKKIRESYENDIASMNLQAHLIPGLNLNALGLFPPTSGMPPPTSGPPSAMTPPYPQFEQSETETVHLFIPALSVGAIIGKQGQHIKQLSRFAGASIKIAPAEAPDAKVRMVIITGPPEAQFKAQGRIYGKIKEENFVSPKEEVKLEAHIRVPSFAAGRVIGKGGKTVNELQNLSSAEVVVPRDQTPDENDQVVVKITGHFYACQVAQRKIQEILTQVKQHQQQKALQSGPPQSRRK
UniProt O00264: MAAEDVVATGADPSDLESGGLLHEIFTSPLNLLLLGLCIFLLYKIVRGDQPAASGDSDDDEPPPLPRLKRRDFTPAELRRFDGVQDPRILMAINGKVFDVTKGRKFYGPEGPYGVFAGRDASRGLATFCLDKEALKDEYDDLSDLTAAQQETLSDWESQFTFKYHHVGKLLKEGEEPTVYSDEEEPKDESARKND
UniProt O15234, whole entry: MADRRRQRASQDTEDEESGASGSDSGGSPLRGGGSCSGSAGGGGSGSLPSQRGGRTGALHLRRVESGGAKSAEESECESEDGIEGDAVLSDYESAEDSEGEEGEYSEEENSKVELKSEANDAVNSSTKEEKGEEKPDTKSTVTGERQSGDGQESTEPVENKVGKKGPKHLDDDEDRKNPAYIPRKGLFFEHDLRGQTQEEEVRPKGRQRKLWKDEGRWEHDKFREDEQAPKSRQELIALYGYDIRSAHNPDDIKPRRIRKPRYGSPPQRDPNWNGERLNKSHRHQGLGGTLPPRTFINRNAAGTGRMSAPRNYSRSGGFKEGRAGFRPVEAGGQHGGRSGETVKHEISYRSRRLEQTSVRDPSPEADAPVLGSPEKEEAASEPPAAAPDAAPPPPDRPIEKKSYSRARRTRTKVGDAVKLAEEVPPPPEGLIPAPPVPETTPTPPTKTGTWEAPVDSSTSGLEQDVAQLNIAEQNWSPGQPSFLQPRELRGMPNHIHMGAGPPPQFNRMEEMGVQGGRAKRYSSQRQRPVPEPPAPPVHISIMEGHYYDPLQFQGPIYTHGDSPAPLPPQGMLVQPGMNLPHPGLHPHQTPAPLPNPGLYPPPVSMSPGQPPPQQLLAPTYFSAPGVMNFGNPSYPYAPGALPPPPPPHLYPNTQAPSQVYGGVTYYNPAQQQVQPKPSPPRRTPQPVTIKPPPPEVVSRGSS
UniProt O15198: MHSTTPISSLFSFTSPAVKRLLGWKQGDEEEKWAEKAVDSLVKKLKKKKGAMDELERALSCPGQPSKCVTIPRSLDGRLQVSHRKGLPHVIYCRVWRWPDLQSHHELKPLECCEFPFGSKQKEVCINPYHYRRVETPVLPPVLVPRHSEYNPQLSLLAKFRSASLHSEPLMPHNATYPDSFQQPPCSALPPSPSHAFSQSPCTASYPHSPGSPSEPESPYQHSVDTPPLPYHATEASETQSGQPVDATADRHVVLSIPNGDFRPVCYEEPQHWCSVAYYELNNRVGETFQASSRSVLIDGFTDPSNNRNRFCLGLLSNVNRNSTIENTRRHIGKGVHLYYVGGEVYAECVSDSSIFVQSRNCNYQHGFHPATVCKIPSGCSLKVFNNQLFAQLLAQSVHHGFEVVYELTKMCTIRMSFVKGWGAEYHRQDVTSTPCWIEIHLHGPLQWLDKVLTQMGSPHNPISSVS
UniProt B7Z6K7: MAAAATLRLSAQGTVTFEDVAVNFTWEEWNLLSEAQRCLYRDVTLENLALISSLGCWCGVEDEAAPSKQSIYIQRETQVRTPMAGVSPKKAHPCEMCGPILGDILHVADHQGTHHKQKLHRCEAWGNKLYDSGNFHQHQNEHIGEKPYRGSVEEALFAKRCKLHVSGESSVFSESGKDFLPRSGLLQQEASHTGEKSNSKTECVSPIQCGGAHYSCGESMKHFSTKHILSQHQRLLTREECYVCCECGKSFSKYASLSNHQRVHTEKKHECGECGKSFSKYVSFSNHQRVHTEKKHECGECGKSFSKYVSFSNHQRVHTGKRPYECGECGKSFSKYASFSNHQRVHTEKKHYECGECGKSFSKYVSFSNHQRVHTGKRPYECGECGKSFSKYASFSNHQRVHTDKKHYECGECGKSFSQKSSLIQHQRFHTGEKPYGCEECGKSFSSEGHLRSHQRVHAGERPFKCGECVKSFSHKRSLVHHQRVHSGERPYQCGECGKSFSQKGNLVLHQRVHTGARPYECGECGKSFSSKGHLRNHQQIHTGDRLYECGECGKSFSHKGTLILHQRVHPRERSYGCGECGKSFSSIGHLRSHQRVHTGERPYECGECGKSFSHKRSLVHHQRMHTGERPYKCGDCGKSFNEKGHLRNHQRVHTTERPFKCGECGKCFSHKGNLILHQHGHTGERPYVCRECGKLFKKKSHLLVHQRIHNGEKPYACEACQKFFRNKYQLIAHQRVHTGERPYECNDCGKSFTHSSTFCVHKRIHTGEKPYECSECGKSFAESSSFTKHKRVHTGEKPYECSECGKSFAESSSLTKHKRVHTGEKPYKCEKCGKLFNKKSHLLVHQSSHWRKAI
UniProt O00308: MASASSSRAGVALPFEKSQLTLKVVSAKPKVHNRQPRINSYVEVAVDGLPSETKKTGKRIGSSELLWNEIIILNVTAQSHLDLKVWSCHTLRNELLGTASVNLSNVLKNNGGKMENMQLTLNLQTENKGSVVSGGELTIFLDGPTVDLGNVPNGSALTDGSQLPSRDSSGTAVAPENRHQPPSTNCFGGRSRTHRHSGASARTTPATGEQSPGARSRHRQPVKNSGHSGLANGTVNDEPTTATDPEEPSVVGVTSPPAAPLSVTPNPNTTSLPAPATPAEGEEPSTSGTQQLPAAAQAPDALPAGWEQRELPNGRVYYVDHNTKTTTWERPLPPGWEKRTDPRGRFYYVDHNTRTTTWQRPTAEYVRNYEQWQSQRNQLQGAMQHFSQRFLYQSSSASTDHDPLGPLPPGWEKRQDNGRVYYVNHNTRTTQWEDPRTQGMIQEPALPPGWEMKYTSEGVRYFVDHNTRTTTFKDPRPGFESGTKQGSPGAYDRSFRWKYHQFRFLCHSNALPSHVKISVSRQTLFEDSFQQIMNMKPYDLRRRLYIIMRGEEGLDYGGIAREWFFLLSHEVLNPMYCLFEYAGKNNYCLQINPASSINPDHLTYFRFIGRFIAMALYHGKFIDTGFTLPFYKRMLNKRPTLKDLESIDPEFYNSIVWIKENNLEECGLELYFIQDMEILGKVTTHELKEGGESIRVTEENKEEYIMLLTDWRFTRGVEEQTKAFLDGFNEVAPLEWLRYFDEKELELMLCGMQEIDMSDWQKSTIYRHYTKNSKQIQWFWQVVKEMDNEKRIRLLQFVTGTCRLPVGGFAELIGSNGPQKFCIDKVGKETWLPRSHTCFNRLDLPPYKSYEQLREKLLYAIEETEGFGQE
UniProt O15169, whole entry: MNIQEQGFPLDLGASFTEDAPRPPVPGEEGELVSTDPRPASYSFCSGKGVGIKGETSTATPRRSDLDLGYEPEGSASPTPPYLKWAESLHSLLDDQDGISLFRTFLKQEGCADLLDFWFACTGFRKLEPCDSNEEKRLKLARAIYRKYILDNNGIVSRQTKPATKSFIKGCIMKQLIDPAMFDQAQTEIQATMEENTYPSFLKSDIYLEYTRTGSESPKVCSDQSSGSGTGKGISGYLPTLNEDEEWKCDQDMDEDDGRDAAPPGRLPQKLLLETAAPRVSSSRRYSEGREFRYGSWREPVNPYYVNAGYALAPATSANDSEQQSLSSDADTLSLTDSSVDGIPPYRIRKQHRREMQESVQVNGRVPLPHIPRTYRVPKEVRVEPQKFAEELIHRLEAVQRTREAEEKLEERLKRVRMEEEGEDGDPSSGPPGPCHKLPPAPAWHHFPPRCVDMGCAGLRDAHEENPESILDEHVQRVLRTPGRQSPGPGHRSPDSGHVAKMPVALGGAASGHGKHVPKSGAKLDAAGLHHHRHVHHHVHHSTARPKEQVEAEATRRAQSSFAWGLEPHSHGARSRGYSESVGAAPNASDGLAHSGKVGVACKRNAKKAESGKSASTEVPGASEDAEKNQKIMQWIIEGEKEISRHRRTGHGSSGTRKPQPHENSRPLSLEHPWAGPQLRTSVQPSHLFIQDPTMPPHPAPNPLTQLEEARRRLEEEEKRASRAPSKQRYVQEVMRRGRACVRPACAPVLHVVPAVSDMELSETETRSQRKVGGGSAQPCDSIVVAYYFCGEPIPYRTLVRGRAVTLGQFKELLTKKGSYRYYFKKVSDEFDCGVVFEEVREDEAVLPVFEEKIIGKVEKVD
UniProt O00625: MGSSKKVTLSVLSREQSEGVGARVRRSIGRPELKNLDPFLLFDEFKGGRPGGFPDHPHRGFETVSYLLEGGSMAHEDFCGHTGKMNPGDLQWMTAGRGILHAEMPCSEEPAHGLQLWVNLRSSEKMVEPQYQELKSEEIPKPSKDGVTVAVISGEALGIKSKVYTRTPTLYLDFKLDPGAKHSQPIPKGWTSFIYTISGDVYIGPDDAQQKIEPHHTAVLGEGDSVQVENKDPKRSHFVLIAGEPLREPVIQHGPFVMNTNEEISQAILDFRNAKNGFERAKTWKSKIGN

Compound: Cc1nc(Nc2ncc(C(=O)Nc3c(C)cccc3Cl)s2)cc(N2CCN(CCO)CC2)n1 [dasatinib]
Test: log2 fold change of tryptic peptide abundance, ligand vs vehicle (limited proteolysis) (log2 ratio); higher = more trypsin-susceptible (destabilized)
Conditions: ligand concentration: 5 uM; sample: K562 cleared lysate

Target | log2 fold change
TRIM24 (peptide sequence: VAIFTLMVEINKK, peptide start residue: 311) (UniProt O15164) | 0.215
PIP5K1B (peptide sequence: ALVYDGDTVSVHRPSFYADR, peptide start residue: 367) (UniProt O14986) | -0.317
SEC16A (peptide sequence: RSSLSSHSHQSQIYR, peptide start residue: 1367) (UniProt O15027) | 1.29
KPNA4 (peptide sequence: KLLSSDRNPPIDDLIK, peptide start residue: 97) (UniProt O00629) | -0.118
PDXK (peptide sequence: IHSQEEALR, peptide start residue: 162) (UniProt O00764) | 0.593
ADAM10 (peptide sequence: ESYQMGHMR, peptide start residue: 739) (UniProt O14672) | 0.0751
UniProt O14602 (peptide sequence: EDGQEYAQVIK, peptide start residue: 30) | 0.104
POLR2D (peptide sequence: LHKFELACLANLCPETAEESK, peptide start residue: 92) (UniProt O15514) | 0.218
PSMD11 (peptide sequence: DDPIISTHLAK, peptide start residue: 315) (UniProt O00231) | 0.188
UniProt H3BQB6 (peptide sequence: MEAAEERR, peptide start residue: 173) | -0.87
ZBTB7B (peptide sequence: QLGHLCDLTIR, peptide start residue: 29) (UniProt O15156) | 0.508
BIRC5 (peptide sequence: RAIEQLAAMD, peptide start residue: 133) (UniProt O15392) | -0.24
FCHO1 (peptide sequence: DAAGKPQRPR, peptide start residue: 404) (UniProt O14526) | 0.16
UniProt O14771 (peptide sequence: NTTLGFGLK, peptide start residue: 237) | 0.607
ANKRD28 (peptide sequence: AIHWAAYMGHIEVVK, peptide start residue: 176) (UniProt O15084) | -0.49
IGF2BP3 (peptide sequence: IAPAEAPDAK, peptide start residue: 441) (UniProt O00425) | 0.147
PGRMC1 (peptide sequence: KFYGPEGPYGVFAGR, peptide start residue: 105) (UniProt O00264) | 0.041
CASC3 (peptide sequence: WEHDKFR, peptide start residue: 218) (UniProt O15234) | 0.46
SMAD9 (peptide sequence: NSTIENTRR, peptide start residue: 320) (UniProt O15198) | -0.54
TAF4 (peptide sequence: FFEQLDQIEK, peptide start residue: 946) (UniProt O00268) | 0.101
UniProt B7Z6K7 (peptide sequence: GSVEEALFAKR, peptide start residue: 149) | 0.673
EEF2K (peptide sequence: LTPQAFSHFTFER, peptide start residue: 253) (UniProt O00418) | 0.163
WWP2 (peptide sequence: TTTWQRPTAEYVR, peptide start residue: 355) (UniProt O00308) | -0.079
AXIN1 (peptide sequence: GVGIKGETSTATPR, peptide start residue: 49) (UniProt O15169) | -0.463
PIR (peptide sequence: TPTLYLDFK, peptide start residue: 167) (UniProt O00625) | -0.413
UniProt O15042 (peptide sequence: EKEKELER, peptide start residue: 886) | 0.652

2 entries from above, field by field:
KPNA4 (peptide sequence: KLLSSDRNPPIDDLIK, peptide start residue: 97) (UniProt O00629)
  log2 fold change: -0.118
PDXK (peptide sequence: IHSQEEALR, peptide start residue: 162) (UniProt O00764)
  log2 fold change: 0.593
